# In publication PMC9627524:
# For at least one entry, the source does not settle the construct or the ends of the probe. For part of these data: Negatives hold for the conditions tested. For part of these data: At least one verdict rests on a figure or table, not on a statement of the authors.
# Assays:
# [1] = test system: TcMYC2 (Tanacetum cinerariifolium); assay: EMSA; conditions: EMSA with 10 uM FAM-labeled probe, 50-fold cold competitor; recombinant protein; protein details: 6xHis (pET6HN-C, text says N-terminal frame)
# [2] = test system: TcMYC2 (Tanacetum cinerariifolium); assay: competition with a labelled probe; conditions: EMSA with 10 uM FAM-labeled probe, 50-fold cold competitor, recombinant protein, protein details: 6xHis (pET6HN-C, text says N-terminal frame), label: none (cold competitor)
Sequence,binding result [1],further results
CAACTAATCACACACCGCCACGTGTCCACCGTCCACCTACT (double strand) [TcAOC promoter G-box probe],binds,–
CAACTAATCACACACCGCTCTTCTTCCACCGTCCACCTACT (double strand) [TcAOC promoter mutant probe],–,"binding result ([2]; 50-fold cold mutant vs FAM-N3, shifted band recovered): no binding"
CCTGACAGTTGCTATTTAGTGCTGTCTACTTGTTTAGTTGTGGAGCAAATGACT (double strand) [TcGLIP promoter E-box probe],binds,–
CCTGATCTCGTCTATTTAGTGCTGTCTACTTGTTTAGTTGTGGAGTCCCGTACT (double strand) [TcGLIP promoter mutant probe],–,"binding result ([2]; 50-fold cold mutant vs FAM-N5, shifted band recovered): no binding"
TTTGAAGGCAAGTGATGTAAAGTGCTAAGTGTTAAGTCAATGATTATAT (double strand) [TcCHS promoter E-box probe],binds,–
TTTGAAGGTCCTGTATGTAAAGTGCTAAGTGTTAAGTCAATGATTATAT (double strand) [TcCHS promoter mutant probe],–,"binding result ([2]; 50-fold cold mutant vs FAM-N1, shifted band recovered): no binding"
